Measurements: paper PMC5766592
Results are given in words; binding and its absence hold for the method and conditions named. Binding seen in cells or lysates may run through a third protein. Binding calls can cover weak binding; strength is not graded here. Tags and fused reporters may be left off the sequences shown.

Key:
Test in all cases: co-IP; soluble extracts of co-transfected HEK293 cells; IP with anti-Flag M2-agarose beads overnight at 4 °C; co-IP buffer 50 mM HEPES pH 7.4, 120 mM NaCl, 5 mM EDTA, 10% glycerol, 1% Triton X-100; immunoblot; in one panel cells treated with or without sodium orthovanadate (1 mM) and H2O2 (0.2 mM)
[1] = molecular target: Flag-tagged murine SOCS3 truncation mutant ΔN20 (murine)
[2] = molecular target: Flag-tagged murine SOCS3 truncation mutant ΔC84 (murine)
[3] = molecular target: Flag-tagged murine SOCS3 truncation mutant ΔC40 (murine)
[4] = molecular target: Flag-tagged murine SOCS3 truncation mutant ΔN36 (murine)

Measured: binding

B1: N-terminally GFP-tagged murine cavin-1 (protein, UniProt O54724 1-392)
chain: MEDVTLHIVERPYSGFPDASSEGPEPTQGEARATEEPSGTGSDELIKSDQVNGVLVLSLLDKIIGAVDQIQLTQAQLEERQAEMEGAVQSIQGELSKLGKAHATTSNTVSKLLEKVRKVSVNVKTVRGSLERQAGQIKKLEVNEAELLRRRNFKVMIYQDEVKLPAKLSVSKSLKESEALPEKEGDELGEGERPEDDTAAIELSSDEAVEVEEVIEESRAERIKRSGLRRVDDFKKAFSKEKMEKTKVRTRENLEKTRLKTKENLEKTRHTLEKRMNKLGTRLVPVERREKLKTSRDKLRKSFTPDHVVYARSKTAVYKVPPFTFHVKKIREGEVEVLKATEMVEVGPEDDEVGAERGEATDLLRGSSPDVHTLLEITEESDAVLVDKSDSD
binds: all assays above
